Results are given in words; binding and its absence hold for the method and conditions named. Binding seen in cells or lysates may run through a third protein. A yes stands for co-enrichment or nearness to the bait. Other partners may have been found.
Target: insulin growth factor binding protein 2 (human (endogenous in plasma)) (UniProt P18065)
Assay: affinity purification with mass spectrometry

Sequences of proteins named here, by UniProt entry; tags and fusion partners are left off. Residues count along the entry.
UniProt P18065, 36-325: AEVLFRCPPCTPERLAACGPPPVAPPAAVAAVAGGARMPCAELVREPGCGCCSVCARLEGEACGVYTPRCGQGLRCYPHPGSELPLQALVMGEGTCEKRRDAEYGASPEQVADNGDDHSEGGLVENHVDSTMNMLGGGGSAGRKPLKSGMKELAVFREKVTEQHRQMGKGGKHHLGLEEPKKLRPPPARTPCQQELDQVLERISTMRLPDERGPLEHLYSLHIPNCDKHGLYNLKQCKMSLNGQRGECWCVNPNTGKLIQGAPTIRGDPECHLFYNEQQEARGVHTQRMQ

butyrylcholine esterase (from UniProt P06276 29-602) (enzyme)
binding: binds

Source: publication doi:10.1101/158022
